Numbering of substitutions follows the chain as printed. The exact form of at least one protein or probe is not confirmed. At least one result comes from cells or an extract, where the contact may be indirect. For part of these data: A negative result means that nothing was seen under these conditions. Protein sequences can lack the tags named with them.
Assays:
U2AF35 (Homo sapiens) = molecular target: T1, U2AF35 (Homo sapiens) (UniProt Q01081); assay: binding assay; settings: UV cross-linking and EMSA; protein in a lysate after overexpression; label: 32P-UTP
T1 sequence (looked up, limits assumed): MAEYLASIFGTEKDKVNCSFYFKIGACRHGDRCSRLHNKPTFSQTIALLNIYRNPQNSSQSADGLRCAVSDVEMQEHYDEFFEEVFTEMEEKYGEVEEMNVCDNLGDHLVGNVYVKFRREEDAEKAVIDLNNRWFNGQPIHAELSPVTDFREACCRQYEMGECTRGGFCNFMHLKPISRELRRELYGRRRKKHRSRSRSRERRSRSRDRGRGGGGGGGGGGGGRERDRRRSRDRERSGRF

[1] = molecular target: T2, TTP(97-173) (Homo sapiens) (UniProt P26651); assay: binding assay; settings: UV cross-linking; protein in a lysate after overexpression; protein details: C-terminal HA; label: 32P-UTP
T2 sequence: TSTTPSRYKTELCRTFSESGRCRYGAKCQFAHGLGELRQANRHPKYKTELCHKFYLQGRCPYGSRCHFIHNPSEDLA

[2] = molecular target: T3, cMG1 (TIS11b/ERF1 homologue) (Rattus norvegicus) (UniProt P17431); assay: binding assay; settings: UV cross-linking; EMSA also positive (p256); protein in a lysate after overexpression; protein details: C-terminal HA; label: 32P-UTP
T3 sequence (looked up, limits assumed): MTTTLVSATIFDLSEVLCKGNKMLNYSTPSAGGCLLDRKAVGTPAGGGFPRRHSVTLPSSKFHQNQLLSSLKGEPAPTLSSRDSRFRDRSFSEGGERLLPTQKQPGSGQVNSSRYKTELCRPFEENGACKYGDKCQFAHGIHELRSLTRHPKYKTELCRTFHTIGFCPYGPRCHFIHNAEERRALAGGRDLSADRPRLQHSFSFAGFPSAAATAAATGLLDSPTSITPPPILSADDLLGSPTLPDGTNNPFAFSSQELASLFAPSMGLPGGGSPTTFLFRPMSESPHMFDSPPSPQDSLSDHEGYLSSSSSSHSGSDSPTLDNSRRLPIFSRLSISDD

[3] = test system: T4, XC3H-4(121-276) (Xenopus laevis); assay: binding assay; settings: UV cross-linking; protein in a lysate after overexpression; protein details: C-terminal HA (oocyte extract); label: 32P-UTP
T4 sequence: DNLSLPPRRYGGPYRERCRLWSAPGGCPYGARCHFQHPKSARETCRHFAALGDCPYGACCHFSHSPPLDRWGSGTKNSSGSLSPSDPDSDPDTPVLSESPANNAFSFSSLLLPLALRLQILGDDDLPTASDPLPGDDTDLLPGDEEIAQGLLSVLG

[4] = test system: T5, XC3H-4(1-120) (Xenopus laevis); assay: binding assay; settings: UV cross-linking, complex of about Mr 15,000; protein in a lysate after overexpression; protein details: C-terminal HA (oocyte extract); label: 32P-UTP
T5 sequence: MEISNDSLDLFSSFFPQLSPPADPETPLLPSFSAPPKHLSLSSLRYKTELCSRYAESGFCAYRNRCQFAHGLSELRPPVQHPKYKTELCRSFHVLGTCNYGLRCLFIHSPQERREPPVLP

[5] = molecular target: T6, TTP(97-326) (Homo sapiens) (UniProt P26651); assay: binding assay; settings: UV cross-linking; protein in a lysate after overexpression; protein details: C-terminal HA; label: 32P-UTP
T6 sequence: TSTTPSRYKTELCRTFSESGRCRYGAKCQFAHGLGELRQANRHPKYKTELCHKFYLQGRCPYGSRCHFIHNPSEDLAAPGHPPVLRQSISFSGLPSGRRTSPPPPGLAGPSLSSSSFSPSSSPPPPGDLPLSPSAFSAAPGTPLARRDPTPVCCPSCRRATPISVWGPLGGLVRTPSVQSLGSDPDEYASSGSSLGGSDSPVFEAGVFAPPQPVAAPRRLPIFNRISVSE

[6] = molecular target: T7, XC3H-1 (Xenopus TTP) (Xenopus laevis) (UniProt Q9W671); assay: binding assay; settings: UV cross-linking; protein in a lysate after overexpression; protein details: C-terminal HA; label: 32P-UTP
T7 sequence (looked up, limits assumed): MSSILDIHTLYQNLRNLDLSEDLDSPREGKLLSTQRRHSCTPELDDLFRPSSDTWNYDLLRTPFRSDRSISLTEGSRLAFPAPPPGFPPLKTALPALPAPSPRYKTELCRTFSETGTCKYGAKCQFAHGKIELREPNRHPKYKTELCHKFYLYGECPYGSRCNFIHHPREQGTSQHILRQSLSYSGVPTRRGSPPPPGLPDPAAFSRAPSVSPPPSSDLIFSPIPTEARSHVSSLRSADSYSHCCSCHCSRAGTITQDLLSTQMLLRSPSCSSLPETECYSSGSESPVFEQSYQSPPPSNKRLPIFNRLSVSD

TTP C124R (Homo sapiens) = molecular target: T8, TTP C124R (Homo sapiens) (UniProt P26651); assay: EMSA; settings: protein in a lysate after overexpression; protein details: C-terminal HA; label: 32P-UTP
T8 sequence: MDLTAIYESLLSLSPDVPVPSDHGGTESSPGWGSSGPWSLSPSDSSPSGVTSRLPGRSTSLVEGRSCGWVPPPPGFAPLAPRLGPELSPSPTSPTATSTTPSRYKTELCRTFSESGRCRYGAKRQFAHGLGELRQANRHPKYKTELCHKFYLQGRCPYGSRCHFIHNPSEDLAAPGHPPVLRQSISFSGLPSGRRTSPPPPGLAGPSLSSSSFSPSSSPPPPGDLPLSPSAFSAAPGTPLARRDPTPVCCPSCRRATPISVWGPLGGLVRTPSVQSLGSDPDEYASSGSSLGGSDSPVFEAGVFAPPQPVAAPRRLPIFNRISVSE

TTP C147R (Homo sapiens) = molecular target: T9, TTP C147R (Homo sapiens) (UniProt P26651); assay: EMSA; settings: protein in a lysate after overexpression; protein details: C-terminal HA; label: 32P-UTP
T9 sequence: T8 sequence with R124C, C147R

CUCUAUUUAUAUUUGCACUUAUUAUUUAUUAUUUAUUUAUUAUUUAUUUAUUUGCUUAUGAAUGUAUUUA [TNFa ARE probe 1281-1350]
binding result (U2AF35 (Homo sapiens)): no binding
binding result [1]: binds
binding result [2]: binds
binding result [3]: no binding
binding result [4]: binds
binding result [5]: binds
binding result [6]: binds
binding result (TTP C124R (Homo sapiens)): no binding
binding result (TTP C147R (Homo sapiens)): no binding

Reference: patent US7238473
